Measurements: article PMC11391011
These are yes or no findings as the source states them, for the method shown. Binding seen in cells or lysates may run through a third protein. Some results given as binding are weak or reduced against the parent protein; the word gives no strength. For some of these results: Tags and fused reporters may be left off the sequences shown.

Sequences of proteins named here, by UniProt entry; tags and fusion partners are left off.
UniProt P16615: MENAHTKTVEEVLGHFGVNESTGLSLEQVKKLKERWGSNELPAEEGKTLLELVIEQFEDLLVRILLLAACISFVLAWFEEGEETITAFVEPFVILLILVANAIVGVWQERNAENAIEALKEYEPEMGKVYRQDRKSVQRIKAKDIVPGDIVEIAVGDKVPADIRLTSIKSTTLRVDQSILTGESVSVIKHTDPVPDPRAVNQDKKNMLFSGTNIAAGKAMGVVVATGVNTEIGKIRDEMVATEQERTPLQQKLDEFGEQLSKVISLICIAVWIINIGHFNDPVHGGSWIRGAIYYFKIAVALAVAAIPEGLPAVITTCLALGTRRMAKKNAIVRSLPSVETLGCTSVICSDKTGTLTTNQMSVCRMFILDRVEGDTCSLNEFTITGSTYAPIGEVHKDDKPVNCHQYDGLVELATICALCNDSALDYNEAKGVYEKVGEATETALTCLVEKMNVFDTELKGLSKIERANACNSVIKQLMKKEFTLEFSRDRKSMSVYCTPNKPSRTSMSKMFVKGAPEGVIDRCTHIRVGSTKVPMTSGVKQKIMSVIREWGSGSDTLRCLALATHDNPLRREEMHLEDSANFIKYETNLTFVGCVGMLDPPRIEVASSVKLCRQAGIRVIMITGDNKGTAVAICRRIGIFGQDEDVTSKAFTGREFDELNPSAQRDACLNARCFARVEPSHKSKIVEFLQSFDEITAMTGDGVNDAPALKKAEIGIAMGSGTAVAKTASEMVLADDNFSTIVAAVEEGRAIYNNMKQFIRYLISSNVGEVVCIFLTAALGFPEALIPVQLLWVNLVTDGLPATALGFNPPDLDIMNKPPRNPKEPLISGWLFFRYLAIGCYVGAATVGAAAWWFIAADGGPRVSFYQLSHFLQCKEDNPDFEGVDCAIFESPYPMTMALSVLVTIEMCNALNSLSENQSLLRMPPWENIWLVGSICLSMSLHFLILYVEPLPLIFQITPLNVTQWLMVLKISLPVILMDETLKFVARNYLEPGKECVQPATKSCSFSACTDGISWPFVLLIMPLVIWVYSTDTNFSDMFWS
UniProt P26678: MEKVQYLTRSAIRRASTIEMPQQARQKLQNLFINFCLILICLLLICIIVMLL
UniProt P0DI80: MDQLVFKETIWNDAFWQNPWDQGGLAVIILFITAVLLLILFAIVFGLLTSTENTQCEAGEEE
UniProt P0DTC4: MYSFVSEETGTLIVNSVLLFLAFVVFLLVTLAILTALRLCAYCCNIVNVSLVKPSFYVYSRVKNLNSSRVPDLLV

Legend:
[1] = target: endogenous SERCA2 of HeLa cells (human (endogenous in HeLa)) (UniProt P16615); test: co-IP
[2] = target: human phospholamban, N-terminally (cytosolic side) labelled with eGFP or mCherry (human) (UniProt P26678); test: FRET or BRET
[3] = target: T1, human another-regulin (ALN), N-terminally labelled with eGFP or mCherry (human) (UniProt Q8WVX3); test: FRET or BRET
T1 sequence: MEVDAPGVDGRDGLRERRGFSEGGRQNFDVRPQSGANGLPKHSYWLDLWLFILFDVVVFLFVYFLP

[4] = target: human endoregulin (ELN), N-terminally labelled with eGFP or mCherry (human) (UniProt P0DI80); test: FRET or BRET
[5] = target: human phospholamban, N-terminally (cytosolic side) labelled with eGFP or mCherry (human) (UniProt P26678); test: FRET or BRET; […] donor eGFP, acceptor mCherry; region of interest within the ER; FRET efficiency by FRETcalc
[6] = target: T1, human another-regulin (ALN), N-terminally labelled with eGFP or mCherry (human); test: as above
[7] = target: human endoregulin (ELN), N-terminally labelled with eGFP or mCherry (human) (UniProt P0DI80); test: as above
[8] = target: human endoregulin (ELN), N-terminally labelled with eGFP or mCherry (human) (UniProt P0DI80); test: FRET or BRET; […] region of interest within the ER; FRET efficiency by FRETcalc

Q: Which results are given for “SARS-CoV-2 envelope (E) protein, N-terminally labelled with eGFP or mCherry (from UniProt P0DTC4 1-75)”?
A: binding [1]: binds; binding [2]: binds; binding [3]: binds; binding [4]: binds

Q: What does the source list for “human phospholamban, N-terminally (cytosolic side) labelled with eGFP or mCherry (from UniProt P26678 1-52)”?
A: binding [5]: binds; binding [6]: binds; binding [7]: binds

Q: Which binding [8] does the source give for “human endoregulin (ELN), N-terminally labelled with eGFP or mCherry (from UniProt P0DI80 1-62)” here?
A: binds

B1: human another-regulin (ALN), N-terminally labelled with eGFP or mCherry (protein, UniProt Q8WVX3-1 1-66)
chain: T1 sequence
Q: What does the source list for B1?
A: binding [6]: binds; binding [7]: binds
